These are yes or no findings as the source states them, for the method shown. For part of these data: Binding seen in cells or lysates may run through a third protein. Some results given as binding are weak or reduced against the parent protein; the word gives no strength. Each block holds one molecule with its values, some of them ahead of it.
Assays:
[1] = molecular target: T1, heat-shock protein 47 (HSP47), mouse, endogenous (mouse (endogenous in liver and HSCs of C57BL/6 mice)) (UniProt P19324); test: co-IP; HSCs isolated from livers of the AKAP12 PDEL CRISPR model (oil+EV, oil+CR, CCl4+EV, CCl4+CR); co-immunoprecipitation and western blot
T1 sequence: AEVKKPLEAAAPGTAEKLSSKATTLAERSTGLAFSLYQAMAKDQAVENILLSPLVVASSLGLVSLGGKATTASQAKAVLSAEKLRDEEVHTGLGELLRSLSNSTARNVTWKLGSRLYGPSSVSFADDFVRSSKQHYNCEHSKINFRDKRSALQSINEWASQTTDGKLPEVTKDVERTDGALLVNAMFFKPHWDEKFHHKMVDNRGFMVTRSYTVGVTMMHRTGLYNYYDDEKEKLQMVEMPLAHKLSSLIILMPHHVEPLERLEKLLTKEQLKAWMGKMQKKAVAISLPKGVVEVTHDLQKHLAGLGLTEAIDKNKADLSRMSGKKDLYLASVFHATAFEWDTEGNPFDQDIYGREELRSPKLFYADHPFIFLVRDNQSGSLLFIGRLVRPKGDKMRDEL

Sequences of proteins named here, by UniProt entry; tags and fusion partners are left off. A change or cut given only in a name is not applied to a line headed by its entry. Residues count along the entry.
UniProt Q02952: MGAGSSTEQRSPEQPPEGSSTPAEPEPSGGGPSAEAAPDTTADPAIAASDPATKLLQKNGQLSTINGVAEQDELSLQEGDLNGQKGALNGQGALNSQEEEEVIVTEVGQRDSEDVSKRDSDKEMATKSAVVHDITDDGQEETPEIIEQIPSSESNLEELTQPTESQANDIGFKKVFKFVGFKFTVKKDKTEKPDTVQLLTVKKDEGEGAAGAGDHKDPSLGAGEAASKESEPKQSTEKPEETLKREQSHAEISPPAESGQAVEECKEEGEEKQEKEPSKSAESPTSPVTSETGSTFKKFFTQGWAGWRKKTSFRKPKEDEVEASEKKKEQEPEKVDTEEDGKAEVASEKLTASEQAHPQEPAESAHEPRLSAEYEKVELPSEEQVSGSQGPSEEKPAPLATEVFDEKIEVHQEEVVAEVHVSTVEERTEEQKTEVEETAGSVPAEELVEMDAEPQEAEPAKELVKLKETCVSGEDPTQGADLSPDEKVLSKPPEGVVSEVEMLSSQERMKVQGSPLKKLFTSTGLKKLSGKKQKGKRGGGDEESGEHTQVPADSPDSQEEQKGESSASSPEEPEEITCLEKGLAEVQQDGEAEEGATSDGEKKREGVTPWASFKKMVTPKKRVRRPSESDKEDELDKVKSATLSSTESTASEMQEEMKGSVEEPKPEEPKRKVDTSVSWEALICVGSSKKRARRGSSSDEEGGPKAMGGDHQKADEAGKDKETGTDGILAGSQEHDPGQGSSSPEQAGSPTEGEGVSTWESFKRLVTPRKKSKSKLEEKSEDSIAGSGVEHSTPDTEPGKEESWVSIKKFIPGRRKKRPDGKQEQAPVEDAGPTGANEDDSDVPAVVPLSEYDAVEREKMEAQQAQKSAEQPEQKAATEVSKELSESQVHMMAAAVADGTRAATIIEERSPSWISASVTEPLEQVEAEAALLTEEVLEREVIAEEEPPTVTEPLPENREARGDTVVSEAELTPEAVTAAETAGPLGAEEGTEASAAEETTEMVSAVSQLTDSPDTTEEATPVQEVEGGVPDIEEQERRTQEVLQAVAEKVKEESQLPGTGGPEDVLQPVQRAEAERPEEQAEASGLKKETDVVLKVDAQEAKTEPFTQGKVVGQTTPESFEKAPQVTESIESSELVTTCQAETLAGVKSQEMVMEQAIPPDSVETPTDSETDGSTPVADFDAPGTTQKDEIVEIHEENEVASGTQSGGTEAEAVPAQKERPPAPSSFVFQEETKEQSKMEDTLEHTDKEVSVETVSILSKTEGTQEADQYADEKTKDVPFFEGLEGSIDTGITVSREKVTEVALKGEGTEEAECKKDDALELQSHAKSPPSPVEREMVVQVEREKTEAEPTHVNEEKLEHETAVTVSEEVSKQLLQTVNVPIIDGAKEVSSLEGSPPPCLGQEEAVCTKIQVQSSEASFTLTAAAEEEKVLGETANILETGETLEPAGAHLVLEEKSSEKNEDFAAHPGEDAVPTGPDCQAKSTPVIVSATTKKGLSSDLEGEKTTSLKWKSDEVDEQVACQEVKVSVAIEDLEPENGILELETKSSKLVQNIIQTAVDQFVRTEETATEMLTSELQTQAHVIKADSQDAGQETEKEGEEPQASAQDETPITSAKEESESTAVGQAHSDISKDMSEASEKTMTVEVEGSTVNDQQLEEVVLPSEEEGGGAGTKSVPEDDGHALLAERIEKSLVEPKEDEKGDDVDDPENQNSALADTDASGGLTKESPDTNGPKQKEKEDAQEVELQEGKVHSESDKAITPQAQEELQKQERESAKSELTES
UniProt Q9WTQ5: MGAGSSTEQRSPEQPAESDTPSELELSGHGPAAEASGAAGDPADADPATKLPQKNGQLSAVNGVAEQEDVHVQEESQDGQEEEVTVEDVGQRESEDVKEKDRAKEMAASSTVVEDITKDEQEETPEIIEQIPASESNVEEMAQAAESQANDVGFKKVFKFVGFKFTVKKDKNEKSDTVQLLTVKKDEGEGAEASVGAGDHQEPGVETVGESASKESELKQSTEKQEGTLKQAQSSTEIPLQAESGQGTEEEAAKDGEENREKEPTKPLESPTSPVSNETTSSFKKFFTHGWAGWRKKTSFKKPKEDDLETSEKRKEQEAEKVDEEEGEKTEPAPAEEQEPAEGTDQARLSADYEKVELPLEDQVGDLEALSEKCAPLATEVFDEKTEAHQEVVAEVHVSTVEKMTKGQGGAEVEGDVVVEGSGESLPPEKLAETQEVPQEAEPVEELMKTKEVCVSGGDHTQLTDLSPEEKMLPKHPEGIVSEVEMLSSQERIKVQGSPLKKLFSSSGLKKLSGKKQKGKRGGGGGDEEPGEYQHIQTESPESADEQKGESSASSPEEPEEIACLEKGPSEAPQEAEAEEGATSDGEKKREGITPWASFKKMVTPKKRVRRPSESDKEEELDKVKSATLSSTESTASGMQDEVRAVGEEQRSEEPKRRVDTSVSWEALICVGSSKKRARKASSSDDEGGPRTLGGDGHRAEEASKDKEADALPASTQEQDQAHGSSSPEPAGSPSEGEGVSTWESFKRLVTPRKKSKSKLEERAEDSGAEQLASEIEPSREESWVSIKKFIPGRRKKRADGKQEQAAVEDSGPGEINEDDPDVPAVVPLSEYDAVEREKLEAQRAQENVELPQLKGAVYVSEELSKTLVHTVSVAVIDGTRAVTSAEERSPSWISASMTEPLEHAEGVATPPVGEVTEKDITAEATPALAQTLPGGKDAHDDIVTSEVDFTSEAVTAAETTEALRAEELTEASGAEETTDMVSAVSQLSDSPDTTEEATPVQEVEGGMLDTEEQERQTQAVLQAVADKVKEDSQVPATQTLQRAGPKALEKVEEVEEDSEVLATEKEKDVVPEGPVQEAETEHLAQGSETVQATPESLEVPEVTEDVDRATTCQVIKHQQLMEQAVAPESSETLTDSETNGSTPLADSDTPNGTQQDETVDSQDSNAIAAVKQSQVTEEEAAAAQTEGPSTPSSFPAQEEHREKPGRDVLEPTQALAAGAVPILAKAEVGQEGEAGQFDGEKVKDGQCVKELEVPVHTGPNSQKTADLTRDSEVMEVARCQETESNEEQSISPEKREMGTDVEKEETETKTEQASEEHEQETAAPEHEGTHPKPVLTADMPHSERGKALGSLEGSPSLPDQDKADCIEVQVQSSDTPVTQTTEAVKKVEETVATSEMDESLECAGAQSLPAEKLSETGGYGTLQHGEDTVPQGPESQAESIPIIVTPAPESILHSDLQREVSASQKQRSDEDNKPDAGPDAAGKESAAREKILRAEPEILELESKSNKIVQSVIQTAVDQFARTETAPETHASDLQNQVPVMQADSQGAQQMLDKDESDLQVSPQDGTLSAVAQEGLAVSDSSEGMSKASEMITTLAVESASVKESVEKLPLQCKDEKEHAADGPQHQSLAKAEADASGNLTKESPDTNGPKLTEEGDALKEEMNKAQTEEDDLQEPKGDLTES
UniProt Q9EQY0, residues 21-977: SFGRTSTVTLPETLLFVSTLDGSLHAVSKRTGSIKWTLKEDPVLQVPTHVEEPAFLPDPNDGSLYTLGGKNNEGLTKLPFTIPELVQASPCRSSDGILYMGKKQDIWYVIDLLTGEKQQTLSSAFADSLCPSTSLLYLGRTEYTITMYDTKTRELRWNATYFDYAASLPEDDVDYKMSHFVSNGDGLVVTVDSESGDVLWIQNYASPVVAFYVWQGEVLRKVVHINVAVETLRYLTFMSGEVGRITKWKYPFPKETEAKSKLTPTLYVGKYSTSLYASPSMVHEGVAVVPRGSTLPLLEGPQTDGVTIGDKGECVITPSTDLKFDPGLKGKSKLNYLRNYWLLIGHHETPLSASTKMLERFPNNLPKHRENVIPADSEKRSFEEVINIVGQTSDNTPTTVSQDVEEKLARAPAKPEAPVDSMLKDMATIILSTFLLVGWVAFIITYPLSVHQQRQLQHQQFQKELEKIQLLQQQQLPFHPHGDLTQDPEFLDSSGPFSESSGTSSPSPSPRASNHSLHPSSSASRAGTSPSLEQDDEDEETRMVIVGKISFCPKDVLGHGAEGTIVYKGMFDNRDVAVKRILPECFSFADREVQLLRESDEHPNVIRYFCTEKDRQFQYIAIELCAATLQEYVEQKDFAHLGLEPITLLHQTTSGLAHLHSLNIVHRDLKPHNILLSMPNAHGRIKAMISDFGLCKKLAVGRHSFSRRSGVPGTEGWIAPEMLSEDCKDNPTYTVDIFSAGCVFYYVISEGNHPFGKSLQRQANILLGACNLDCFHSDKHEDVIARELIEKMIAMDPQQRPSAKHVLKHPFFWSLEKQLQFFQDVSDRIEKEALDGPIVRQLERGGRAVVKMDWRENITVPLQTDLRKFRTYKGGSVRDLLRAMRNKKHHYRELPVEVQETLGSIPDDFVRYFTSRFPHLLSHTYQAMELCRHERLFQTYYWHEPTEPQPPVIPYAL

[2] = molecular target: T1, heat-shock protein 47 (HSP47), mouse, endogenous (mouse (endogenous in liver and HSCs of C57BL/6 mice)); test: proximity ligation; mouse liver sections (oil or CCl4; EV, PDEL or PMUT CRISPR), PLA co-stained with the HSC marker desmin
[3] = molecular target: A-kinase anchoring protein 12 (AKAP12), human, endogenous (human (endogenous in primary HSCs and liver tissue)) (UniProt Q02952); test: co-IP; extracts of primary human HSCs (cultured 0, 3 or 6 days; WT or CRISPR-edited HDR cells; negative control or Prkca siRNA A or B); AKAP12-HSP47 co-immunoprecipitation and western blot
[4] = molecular target: AKAP12 with its five activation-responsive phospho-sites deleted by CRISPR-directed HDR, human HSCs (human (endogenous locus in primary HSCs, edited)) (UniProt Q02952); test: proximity ligation; cultured activated human HSCs, WT or HDR, fixed and permeabilised; PLA co-stained with the ER marker calreticulin
[5] = molecular target: A-kinase anchoring protein 12 (AKAP12), human, endogenous (human (endogenous in primary HSCs and liver tissue)) (UniProt Q02952); test: as above
[6] = molecular target: A-kinase anchoring protein 12 (AKAP12), human, endogenous (human (endogenous in primary HSCs and liver tissue)) (UniProt Q02952); test: proximity ligation; human liver tissue array (11 normal, 16 liver fibrosis tissues), paraffin sections, AKAP12 and HSP47 far red PLA probes
[7] = molecular target: biotinylated recombinant AKAP12 (human, in vitro translated) (human) (UniProt Q02952); test: co-IP; recombinant system without active PKCα: biotin-antibody column with bound biotinylated AKAP12 treated with recombinant HSP47 (HSP47 blot), and reverse IP on an HSP47-antibody column with bound HSP47 treated with biotinylated AKAP12 (streptavidin-HRP); both purified
[8] = molecular target: A-kinase anchoring protein 12 (AKAP12), mouse, endogenous (mouse (endogenous in liver and HSCs of C57BL/6 mice)) (UniProt Q9WTQ5); test: proximity ligation; mouse liver sections (oil or CCl4; EV, PDEL or PMUT CRISPR), PLA co-stained with the HSC marker desmin
[9] = molecular target: A-kinase anchoring protein 12 (AKAP12), mouse, endogenous (mouse (endogenous in liver and HSCs of C57BL/6 mice)) (UniProt Q9WTQ5); test: co-IP; mouse liver protein (oil or CCl4 mice; EV, PDEL or PMUT CRISPR AAV); 200 µg pre-cleared protein with 2 µg antibody; AKAP12 antibody and HSP47 blot, or HSP47 antibody and collagen blot; normal mouse IgG as negative control

B1: heat-shock protein 47 (HSP47), human, endogenous (natural protein, UniProt P50454 19-418, looked up)
chain: AEVKKPAAAAAPGTAEKLSPKAATLAERSAGLAFSLYQAMAKDQAVENILVSPVVVASSLGLVSLGGKATTASQAKAVLSAEQLRDEEVHAGLGELLRSLSNSTARNVTWKLGSRLYGPSSVSFADDFVRSSKQHYNCEHSKINFRDKRSALQSINEWAAQTTDGKLPEVTKDVERTDGALLVNAMFFKPHWDEKFHHKMVDNRGFMVTRSYTVGVMMMHRTGLYNYYDDEKEKLQIVEMPLAHKLSSLIILMPHHVEPLERLEKLLTKEQLKIWMGKMQKKAVAISLPKGVVEVTHDLQKHLAGLGLTEAIDKNKADLSRMSGKKDLYLASVFHATAFELDTDGNPFDQDIYGREELRSPKLFYADHPFIFLVRDTQSGSLLFIGRLVRPKGDKMRDEL
notes: heat-shock protein 47 (HSP47), ER-resident collagen chaperone, human, endogenous in primary HSCs and liver tissue; source: endogenous, primary human HSC extracts and fixed cells; human liver tissue array
binding [3]: binds
binding [4]: binds
binding [5]: binds weakly
binding [6]: binds

B2: HSP47 recombinant, human (protein, UniProt P50454 19-418)
chain: AEVKKPAAAAAPGTAEKLSPKAATLAERSAGLAFSLYQAMAKDQAVENILVSPVVVASSLGLVSLGGKATTASQAKAVLSAEQLRDEEVHAGLGELLRSLSNSTARNVTWKLGSRLYGPSSVSFADDFVRSSKQHYNCEHSKINFRDKRSALQSINEWAAQTTDGKLPEVTKDVERTDGALLVNAMFFKPHWDEKFHHKMVDNRGFMVTRSYTVGVMMMHRTGLYNYYDDEKEKLQIVEMPLAHKLSSLIILMPHHVEPLERLEKLLTKEQLKIWMGKMQKKAVAISLPKGVVEVTHDLQKHLAGLGLTEAIDKNKADLSRMSGKKDLYLASVFHATAFELDTDGNPFDQDIYGREELRSPKLFYADHPFIFLVRDTQSGSLLFIGRLVRPKGDKMRDEL
binding [7]: binds

Second part, the molecule after the results:

binding [1]: binds
binding [2]: binds
Molecule: inositol-requiring enzyme 1 alpha (IRE1α), mouse, endogenous (from UniProt Q9EQY0 21-977)

binding [8]: binds
binding [9]: binds
B3: heat-shock protein 47 (HSP47), mouse, endogenous (protein, UniProt P19324 18-417)
chain: AEVKKPLEAAAPGTAEKLSSKATTLAERSTGLAFSLYQAMAKDQAVENILLSPLVVASSLGLVSLGGKATTASQAKAVLSAEKLRDEEVHTGLGELLRSLSNSTARNVTWKLGSRLYGPSSVSFADDFVRSSKQHYNCEHSKINFRDKRSALQSINEWASQTTDGKLPEVTKDVERTDGALLVNAMFFKPHWDEKFHHKMVDNRGFMVTRSYTVGVTMMHRTGLYNYYDDEKEKLQMVEMPLAHKLSSLIILMPHHVEPLERLEKLLTKEQLKAWMGKMQKKAVAISLPKGVVEVTHDLQKHLAGLGLTEAIDKNKADLSRMSGKKDLYLASVFHATAFEWDTEGNPFDQDIYGREELRSPKLFYADHPFIFLVRDNQSGSLLFIGRLVRPKGDKMRDEL

— paper PMC9531947, “Targeting A-kinase anchoring protein 12 phosphorylation in hepatic stellate cells regulates liver injury and fibrosis in mouse models” (eLife, 2022)
